Results from one PubChem assay

The results are deposited in PubChem (AID912; NCATS, 2007).

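A cell-based FRET test of anthrax lethal toxin entry, tracked through the 460 nm emission signal; the cell line is not named here.
Each compound was tested as a concentration series from about 0.0005 to 40 µM.
The number is the fitted AC50 of the 460 nm signal alone; lower values mean a more potent effect. A falling signal goes with compounds filed as inhibitors or cytotoxic, a rising one with activators or fluorescent compounds (inferred from the filed classes).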

Values are in µM.
Common to all entries: measured here: 460 nm channel.
Part of the compounds only, not a random draw; the main read-out is not listed here.
A potency from a partial, single-point or poor curve is only a rough figure.
The first word of each remark tells which way the curve ran; it can be opposite to the aim of the assay.

{"smiles": "O=C1CSC(=S)N1c1cccnc1", "AC50 (µM)": "5.012", "remark": "falling, single point"}
{"smiles": "CN1C(=O)C2(OCC(COc3ccc(Cl)cc3)O2)c2ccccc21", "stereo": "stereo not drawn", "AC50 (µM)": "25.12", "remark": "falling, single point"}
{"smiles": "Cc1nc(NCC2CCCO2)nc2c1C(=O)CC(C)(C)C2", "stereo": "stereo not drawn", "AC50 (µM)": "0.005012", "remark": "falling, full curve, poor fit"}
{"smiles": "NC(CSS(=O)(=O)O)=N[C@@H]1C[C@H]2CC[C@@H]1C2", "AC50 (µM)": "0.3162", "remark": "falling, full curve"}
{"smiles": "O=C1C(C=NCCCN2CCOCC2)=C(O)c2ccccc21", "AC50 (µM)": "1.259", "remark": "falling, single point"}
{"smiles": "COc1cc(C2C3=C(CC(C)(C)CC3=O)Nc3c2c(=O)[nH]c(=O)n3Cc2ccccc2)ccc1O", "stereo": "stereo not drawn", "AC50 (µM)": "10", "remark": "rising, partial curve"}
{"smiles": "Cn1c(=O)cc(OCCCC(=O)Nc2ccccn2)c2ccccc21", "AC50 (µM)": "15.85", "remark": "rising, partial curve, poor fit"}
{"smiles": "COc1ccccc1-n1cnc(N)c1C(C)=O", "AC50 (µM)": "0.01585", "remark": "falling, full curve"}
{"smiles": "COc1ccc(C(=O)Nc2ccccc2C(=O)NCc2ccco2)cc1OC", "AC50 (µM)": "0.631", "remark": "falling, full curve, poor fit"}
{"smiles": "O=C(NC[C@H]1CCCCN1)c1cc(OCC(F)(F)F)ccc1OCC(F)(F)F", "AC50 (µM)": "2.512", "remark": "falling, full curve"}
{"smiles": "O=c1c2c3nc4ccccc4nc3n(-c3ccc4c(c3)OCCO4)c2ncn1CC1CCCO1", "stereo": "stereo not drawn", "AC50 (µM)": "5.012", "remark": "rising, single point"}
{"smiles": "O=C(c1ccccc1)c1ccc(OC(=O)N2CCCC2)cc1", "AC50 (µM)": "0.1995", "remark": "falling, full curve, poor fit"}
{"smiles": "CN(C)C(=O)CSc1nnc(CCCCCNC(=O)OC(C)(C)C)o1", "AC50 (µM)": "12.59", "remark": "falling, partial curve, poor fit"}
{"smiles": "O=C(CCCN1CCC(c2ccccc2)C1)c1ccc2c(c1)OCCO2", "stereo": "stereo not drawn", "AC50 (µM)": "1", "remark": "falling, partial curve"}
{"smiles": "O=C1c2ccccc2C(=O)N1CCc1nc2ccccc2c(=O)n1Cc1ccco1", "AC50 (µM)": "31.62", "remark": "falling, single point"}
{"smiles": "Cc1csc(NC(=O)c2cc3c(s2)-c2ccccc2OC3)n1", "AC50 (µM)": "19.95", "remark": "rising, single point"}
{"smiles": "C=CCn1c(CCC(=O)O)ccc1-c1ccccc1", "AC50 (µM)": "31.62", "remark": "falling, single point"}
{"smiles": "CCN(CCNC(=O)C1CCCN(Cc2nc(-c3ccc(OC)cc3)oc2C)C1)c1ccccc1", "stereo": "stereo not drawn", "AC50 (µM)": "31.62", "remark": "falling, single point"}
{"smiles": "C=C1C(=O)O[C@@H]2[C@H]3O[C@]3(C)CCC=C(C)CC[C@@H]12", "AC50 (µM)": "3.981", "remark": "rising, full curve"}
{"smiles": "CCC(=O)Nc1ccc2nc(SCC(=O)N3CCCC3)sc2c1", "AC50 (µM)": "5.012", "remark": "rising, single point"}
{"smiles": "Cn1c(=O)[nH]c(=O)c2c1nc(N1CCc3ccccc3C1)n2CCSc1nc2ccccc2s1", "AC50 (µM)": "0.1259", "remark": "falling, full curve, poor fit"}
{"smiles": "COc1ccc(CCn2c(SCC(=O)Nc3cc(C)on3)nc3ccccc3c2=O)cc1OC", "AC50 (µM)": "0.1585", "remark": "rising, full curve"}
{"smiles": "C=CCn1cc(C(=O)NCCCOC)c(=O)c2cc(S(=O)(=O)N(CC)CC)ccc21", "AC50 (µM)": "0.1", "remark": "rising, full curve, poor fit"}
{"smiles": "CS(=O)(=O)N1CCC2(CCCN(c3ccncc3)C2)CC1", "AC50 (µM)": "25.12", "remark": "rising, single point"}
{"smiles": "Nc1nc(-c2ccccc2)nc(-c2ccccc2O)n1", "AC50 (µM)": "10", "remark": "falling, partial curve"}
{"smiles": "O=C(Nc1ccc(SC(F)F)cc1)c1ccc2nccnc2c1", "AC50 (µM)": "15.85", "remark": "falling, partial curve"}
{"smiles": "O=C(OCC(=O)N1CCCC1)c1cncc(Br)c1", "AC50 (µM)": "12.59", "remark": "rising, partial curve, poor fit"}
{"smiles": "Nc1nc2c(c(=O)[nH]1)CN(CCCN1CCOCC1)CN2", "AC50 (µM)": "0.5012", "remark": "rising, single point"}